Results are given in words; binding and its absence hold for the method and conditions named. Binding seen in cells or lysates may run through a third protein. Some results given as binding are weak or reduced against the parent protein; the word gives no strength. Tags and fused reporters may be left off the sequences shown.
Target: T1, His-tagged Rab7b Q67L (constitutively active mutant) (UniProt Q96AH8)
T1 sequence: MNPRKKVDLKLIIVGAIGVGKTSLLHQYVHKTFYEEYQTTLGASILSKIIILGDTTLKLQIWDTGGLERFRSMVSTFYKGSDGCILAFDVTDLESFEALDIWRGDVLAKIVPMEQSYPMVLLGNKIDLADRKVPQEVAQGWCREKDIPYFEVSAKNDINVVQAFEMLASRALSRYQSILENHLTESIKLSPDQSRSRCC
Test: pull-down; 40 µg His–Rab fusion protein bound to Dynabeads His-Tag (cobalt-coated magnetic beads), incubated with precleared lysates from LPS-treated MDDCs for 30 min at 4°C; washed six times with 3.25 mM sodium phosphate pH 7.4, 70 mM NaCl, 0.01% Tween-20; eluted with 300 mM imidazole; western blot with anti-His and anti-TRPML1; only the target purified

Chains of the proteins cited; added tags and fusions are not shown.
UniProt Q9GZU1: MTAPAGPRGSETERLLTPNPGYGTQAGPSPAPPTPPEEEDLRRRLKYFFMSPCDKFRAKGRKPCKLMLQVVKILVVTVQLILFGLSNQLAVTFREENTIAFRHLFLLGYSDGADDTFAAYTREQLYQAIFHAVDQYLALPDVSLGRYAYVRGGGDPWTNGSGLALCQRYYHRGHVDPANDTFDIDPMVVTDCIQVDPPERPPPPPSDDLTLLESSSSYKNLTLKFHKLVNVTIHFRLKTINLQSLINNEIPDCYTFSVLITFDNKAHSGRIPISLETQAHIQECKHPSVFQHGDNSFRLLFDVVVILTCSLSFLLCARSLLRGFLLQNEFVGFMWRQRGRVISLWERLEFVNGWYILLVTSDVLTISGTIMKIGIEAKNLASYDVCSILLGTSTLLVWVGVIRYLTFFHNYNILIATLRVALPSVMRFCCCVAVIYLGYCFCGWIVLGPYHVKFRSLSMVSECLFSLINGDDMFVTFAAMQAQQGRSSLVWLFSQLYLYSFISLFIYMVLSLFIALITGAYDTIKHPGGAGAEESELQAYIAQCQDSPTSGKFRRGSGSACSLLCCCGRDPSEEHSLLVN

binding: binds
Substance: lysosomal Ca2+ channel TRPML1 (transient receptor potential cation channel, mucolipin subfamily, member 1) (from UniProt Q9GZU1 1-580)
